{"source": "PubChem BioAssay AID198", "about": "(DTP/NCI, 2004)", "tested_on": "B16 melanoma ip, C57BL/6 mice, median survival T/C", "test": "NCI In Vivo Anticancer Drug Screen. Data for tumor model B16 Melanoma (intraperitoneal) in C57BL/6 mice", "conditions": "T/C endpoint: median survival time, schedule: Q01DX009 (ip), vehicle: saline sonified, higher T/C = longer survival", "procedure": "The antitumor activity of compounds was measured in mice bearing transplantable tumors. Survival or tumor size were measured and the results are expressed as the measurement made in the treated group (T) divided by the measurement made in the vehicle treated control group (C). The tumor model used in this assay is B16 Melanoma (intraperitoneal) in C57BL/6 mice", "note": "The list is a part of this screen's results and no random one: it covers a few groups of compounds. Not every dose and run of a compound is shown. T/C is the treated group as % of the vehicle group. For survival time, the PubChem record calls one and a half times the control and up active, and a quarter to a half above the control has no call in these data; cut-offs in other NCI protocols can differ. Schedule codes are those of the source, taken here to give the interval after Q, in days (D) or hours (H), and the number of doses after X. Some T/C values are marked as having no survivor count here; that says nothing about deaths at the dose."}
{"smiles": "CC(=O)OCC12CCC(C)=CC1OC1C(O)C(OC(C)=O)C2(C)C12CO2", "note": "(stereo not given)", "values": [{"measurement": "T/C", "setting": "dose: 0.13 mg/kg/injection", "result": "108 % of control [survivor count not shown]"}, {"measurement": "T/C", "setting": "dose: 0.25 mg/kg/injection", "result": "114 % of control [survivor count not shown]"}, {"measurement": "T/C", "setting": "dose: 0.5 mg/kg/injection", "result": "117 % of control [survivor count not shown]"}, {"measurement": "T/C", "setting": "dose: 1.0 mg/kg/injection", "result": "111 % of control [survivor count not shown]"}, {"measurement": "T/C", "setting": "dose: 2.0 mg/kg/injection", "result": "102 % of control [survivor count not shown]"}]}
